{"source": "PubChem BioAssay AID1745850", "about": "(National Center for Advancing Translational Sciences (NCATS), 2022)", "note": "Out of some 2,100 compounds screened, about 260 (12%) were called active. This list was built around the results that the source calls inconclusive (neither active nor inactive); the mix of calls is not that of the screen. Calls follow the shape of the dose curve; as a rule, active = well fitted cell-killing curve with a large enough effect; inconclusive = small, poorly fitted or top-dose-only effect, or effect the other way; inactive = flat fitted curve, though single readings scatter. Potencies beside an inconclusive call are fits to weak or partial responses and may not hold up. Potency is read from the fitted curve at half-maximal effect.", "data": [{"assay": "Viability Counterscreen for Confirmatory qHTS for Inhibitors of ATXN expression; also: nearly all actives have a fitted effect of over 50% in size", "conditions": "HEK-293 ATXN2-luc cells viability, CellTiter-Fluor, 24 h; activity change, negative = cytotoxicity: at 11.5 µM (top of the series) unless noted", "outline": "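Luminescence read-out (SteadyGlo, 5 min) followed a 30 min Gly-Phe-AFC (25 uM final) viability fluorescence read. ATXN2-luciferase reporter cells were exposed 24 h to a dilution series. Medium-only wells served as the 100% inhibition reference.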", "values": [{"smiles": "CC(=O)c1cccc(NC(=O)c2cccc3c(-c4cccc(C(N)=O)c4)coc23)c1", "Potency": "active: 20 µM"}, {"smiles": "COc1ccc2c(c1)[nH]c1c(=O)n(/N=C/C3C(C)C=C(C)CC3C)c(=O)[nH]c12", "note": "(centres undefined)", "Potency": "active: 20 µM"}, {"smiles": "Cc1cc(/C=N/n2c(COc3ccccc3)nc3ccccc3c2=O)c(O)c([N+](=O)[O-])c1", "Potency": "inconclusive: 20 µM [cytotoxic, partial curve]"}, {"smiles": "O=C(N/N=C/c1ccccc1O)C1CCCC1", "Potency": "inconclusive: 39.8 µM [cytotoxic, single point]"}, {"smiles": "Cn1c(N)c(C(=O)Nc2ccc(-c3ccccc3)cc2)sc1=S", "activity change, negative = cytotoxicity": "inactive: -20.9% [at 57.5 µM]"}, {"smiles": "CC(C)[C@@H]1CC[C@@H](C)C[C@H]1OC(=O)C[n+]1cc(-c2ccc(Cl)cc2)n2c1CCCCC2", "Potency": "active: 22.4 µM"}, {"smiles": "O=C(NC1CCN(Cc2ccccc2)CC1)c1cccc(S(=O)(=O)Nc2ccc(SC(F)F)cc2)c1", "Potency": "inconclusive: 31.6 µM [cytotoxic, partial curve, poor fit]"}, {"smiles": "CCOC(=O)N(C)c1c(CC)nc2c(OCc3ccccc3C)cccn12", "Potency": "inconclusive: 39.8 µM [cytotoxic, single point]"}, {"smiles": "O=C(Nc1ccc(NC(=O)c2cccs2)cc1)c1ccc2c(c1)OCO2", "Potency": "inconclusive: 3.16 µM [cytotoxic, single point]"}, {"smiles": "CC1=NN(c2nc3ccccc3[nH]2)C(=O)C1Cc1ccccc1", "note": "(centres undefined)", "Potency": "active: 8.91 µM"}, {"smiles": "O=C(CSc1n[nH]c(-c2ccccn2)n1)Nc1cccc(Cl)c1", "Potency": "inconclusive: 14.1 µM [cytotoxic, partial curve]"}, {"smiles": "NC(COCc1ccccc1)c1csc(Nc2ccc(C(F)(F)F)cn2)n1", "note": "(centres undefined)", "Potency": "inconclusive: 39.8 µM [cytotoxic, single point]"}, {"smiles": "Cc1ccc(/C=C2/SC(=S)N(CCCC(=O)Nc3cc([N+](=O)[O-])ccc3O)C2=O)cc1", "Potency": "inconclusive: 25.1 µM [cytotoxic, single point]"}, {"smiles": "CCCCC(=O)NC(c1ccc(Cl)cc1Cl)c1ccc2cccnc2c1O", "note": "(centres undefined)", "activity change, negative = cytotoxicity": "inactive: -18.5%"}, {"smiles": "Cc1cccc(N2CCN(S(=O)(=O)c3ccc4c(c3)C(C)(C)C(=O)N4C)CC2)c1C", "activity change, negative = cytotoxicity": "inactive: -12% [at 57.5 µM]"}, {"smiles": "CCOc1ccc(Nc2c3ccccc3nc3ccccc23)cc1", "Potency": "inconclusive: 35.5 µM [cytotoxic, single point]"}, {"smiles": "Cc1ccc(C(=O)N(C)CC(=O)Nc2ccc(Cl)c(C(F)(F)F)c2)cc1S(=O)(=O)N1CCCCC1", "Potency": "active: 25.1 µM"}, {"smiles": "COc1ccc(CCNC(=O)c2cc(-c3cc(C)cc(C)c3O)n[nH]2)cc1OC", "Potency": "inconclusive: 39.8 µM [cytotoxic, single point]"}, {"smiles": "O=S(=O)(Nc1ccc(O)c2ccccc12)c1ccc(F)cc1", "Potency": "inconclusive: 7.08 µM [cytotoxic, single point]"}, {"smiles": "NC(Cc1ccccc1)c1csc(Nc2nncc3ccccc23)n1", "note": "(centres undefined)", "Potency": "inconclusive: 39.8 µM [cytotoxic, single point]"}, {"smiles": "CCCCNC(=O)C1(C)CCCCN1Cc1ccccc1-c1ccccc1", "note": "(centres undefined)", "Potency": "inconclusive: 39.8 µM [cytotoxic, partial curve, poor fit]"}, {"smiles": "COc1cccc(/C=N/NC(=O)c2cc(-c3ccccn3)nc3ccccc23)c1O", "Potency": "inconclusive: 10 µM [cytotoxic, partial curve]"}, {"smiles": "COc1cc(C(=O)NNC(=O)c2ccc3ccccc3n2)cc(OC)c1OC", "Potency": "inconclusive: 20 µM [cytotoxic, partial curve]"}, {"smiles": "Oc1c(C(Nc2ccccn2)c2cccnc2)cc(Cl)c2cccnc12", "note": "(centres undefined)", "Potency": "inconclusive: 22.4 µM [cytotoxic, partial curve]"}, {"smiles": "O=C(N/N=C/c1ccc(O)cc1O)c1ccc(CN2C(=O)c3cccc4cccc2c34)cc1", "Potency": "inconclusive: 8.91 µM [cytotoxic, partial curve]"}, {"smiles": "COc1ccc(C(=O)N/N=C/c2ccc(N(C)c3ccccc3)cc2)cc1", "activity change, negative = cytotoxicity": "inactive: 8.41%"}, {"smiles": "COc1ccc(C(NC(=O)c2cccnc2)c2cc(Cl)c3cccnc3c2O)cc1OC", "note": "(centres undefined)", "Potency": "inconclusive: 12.6 µM [cytotoxic, partial curve]"}, {"smiles": "O=C(NCc1cc(C(F)(F)F)ccc1Cl)c1cccc2c1C(=O)c1ccc(N3CCOCC3)cc1S2(=O)=O", "Potency": "inconclusive: 3.16 µM [cytotoxic, single point]"}, {"smiles": "COc1cccc(C(=O)Nc2nc(-c3ccc(S(=O)(=O)N4CCOCC4)cc3)cs2)c1", "Potency": "inconclusive: 2.82 µM [cytotoxic, single point]"}, {"smiles": "FC(F)(F)c1cc(-c2ccccn2)nc2cc(-c3ccccc3)nn12", "activity change, negative = cytotoxicity": "inactive: -8.59% [at 57.5 µM]"}, {"smiles": "CCOC(=O)c1cnc(-n2nc(C)cc2C)nc1NNc1cc(C)nc(-c2ccccc2)n1", "Potency": "inconclusive: 14.1 µM [cytotoxic, partial curve]"}, {"smiles": "COc1ccc(CC(=O)Nc2nc(-c3ccc(F)c(F)c3)cs2)cc1OC", "Potency": "inconclusive: 25.1 µM [cytotoxic, partial curve]"}, {"smiles": "COc1ccc(C(NC(C)=O)c2cc(Cl)c3cccnc3c2O)cc1OC", "note": "(centres undefined)", "Potency": "active: 10 µM"}, {"smiles": "CC1(C)Cc2c(c(N3CCOCC3)nc3sc4c(NN)ncnc4c23)CS1", "Potency": "active: 25.1 µM"}, {"smiles": "COc1ccc(CCCNC(=O)C2Cc3c(-c4cccc(NC(C)=O)c4)ccnc3O2)cc1", "note": "(centres undefined)", "activity change, negative = cytotoxicity": "inactive: -26.2%"}, {"smiles": "CNc1nc2c(N)ncnc2n1[C@H]1O[C@@H](CO)[C@H](O)[C@@H]1O", "activity change, negative = cytotoxicity": "inactive: -9.92%"}, {"smiles": "CCN1CCN(c2ccc(S(=O)(=O)N3CCCCC3)cc2NC(=O)c2ccc([N+](=O)[O-])s2)CC1", "Potency": "inconclusive: 3.16 µM [cytotoxic, single point]"}, {"smiles": "Cc1ccc(Nc2c(-c3ccccn3)nc3cc(C)ccn23)cc1", "Potency": "active: 10 µM"}, {"smiles": "CN(Cc1cnc2nc(N)nc(N)c2n1)c1ccc(C(=O)NC(CCC(=O)O)C(=O)O)c2ccccc12", "note": "(centres undefined)", "activity change, negative = cytotoxicity": "inactive: -30.4% [at 57.5 µM]"}, {"smiles": "CCN1CCN(c2ccc(S(=O)(=O)N3CCCCC3)cc2NC(=O)/C=C/c2ccc([N+](=O)[O-])cc2)CC1", "Potency": "inconclusive: 3.16 µM [cytotoxic, single point]"}, {"smiles": "CN(C)CCNc1ccc2nnn3c4ccc(O)cc4c(=O)c1c23", "Potency": "inconclusive: 3.16 µM [cytotoxic, single point]"}, {"smiles": "COc1ccc(-c2nc(CN3CCN(c4ncnc5ccccc45)CC3)c(C)o2)c(OC)c1", "Potency": "inconclusive: 3.55 µM [cytotoxic, partial curve]"}, {"smiles": "CCCCN(C=O)c1c(CC)nc2ccc(C(=O)Nc3cc(-c4ccccc4)ccc3OC)cn12", "Potency": "inconclusive: 39.8 µM [cytotoxic, single point]"}, {"smiles": "Cc1nc(-c2ccc(Cl)cc2)sc1C(=O)NN", "activity change, negative = cytotoxicity": "inactive: -25.7% [at 57.5 µM]"}, {"smiles": "Cc1cc(C)cc(NC(=O)c2ccc([N+](=O)[O-])o2)c1", "Potency": "inconclusive: 3.16 µM [cytotoxic, partial curve]"}, {"smiles": "CCc1cc(-c2[nH]ncc2-c2ccc(OC)cc2)c(O)cc1O", "activity change, negative = cytotoxicity": "inactive: -9.53%"}, {"smiles": "C/C(=N\\Nc1cc(N2CCOCC2)nc(C)n1)c1cccc([N+](=O)[O-])c1", "activity change, negative = cytotoxicity": "inactive: -4.32%"}, {"smiles": "Cc1ccc(/C=C2\\SC(=S)N(CCCC(=O)Nc3cc(C)on3)C2=O)cc1", "activity change, negative = cytotoxicity": "inactive: -20.5%"}, {"smiles": "CCOC(=O)N1CCN(C(=O)c2ccc(Cn3c(=S)[nH]c4ccc(Br)cc4c3=O)cc2)CC1", "Potency": "inconclusive: 3.16 µM [cytotoxic, single point]"}, {"smiles": "COc1ccnc(Oc2ccc(F)cc2)c1C(=O)N/C=N/OCc1ccc(Cl)cc1Cl", "Potency": "inconclusive: 39.8 µM [cytotoxic, single point]"}, {"smiles": "Cc1ccc(OCC(=O)c2cc(C)n(Cc3cccs3)c2C)c([N+](=O)[O-])n1", "activity change, negative = cytotoxicity": "inactive: -23.1% [at 57.5 µM]"}, {"smiles": "Cc1[nH]c2ccccc2c1C1=NNC(=Nc2ccc(F)cc2)SC1", "Potency": "inconclusive: 39.8 µM [cytotoxic, single point]"}, {"smiles": "O=C(N/N=C/c1ccccc1O)/C(=C/c1ccccc1)CCO", "activity change, negative = cytotoxicity": "inactive: -4.41%"}, {"smiles": "CCCc1cc(=O)[nH]c(-n2[nH]c3c(c2=O)CCCC3)n1", "Potency": "inconclusive: 28.2 µM [cytotoxic, single point]"}]}]}
